Values of other authors, collected in patent US20130071496A1, “CONTROLLED RELEASE COMPOSITION CONTAINING A STRONTIUM SALT” (Osteologix A/S, priority 2003, published 2013).
Some results were stated once for a whole list of compounds, not compound by compound. At least one compound was matched to its structure with a doubt left.

Conditions: in water at room temperature 20-25° C.; cited from earlier work

[Cl-].[Cl-].[Sr+2] [SrCl2, strontium chloride]
water-solubility of known strontium salts: above 200 g/l
